## Percent effect of library compounds

The values are deposited in ChEMBL (CHEMBL3988442, “University of Dundee, Small-Polar-MMV Screening Library” (2021)).

A: 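Phenotypic screen: M. tuberculosis growth, cholesterol and DPPC medium, 4 days; the read-out is not stated. Concentration: 50 µM. Direction is inferred from retests: higher values go with more growth inhibition. Size under these conditions: about 69,000 compounds, about 370 of them at 50% or above in at least one test.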
B: 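Phenotypic screen: M. tuberculosis growth, glucose 7H9 medium, 3 days; the read-out is not stated. Tested at 50 µM. Direction is inferred from retests: higher values go with more growth inhibition. About 69,000 compounds were tested under these conditions; 1.1% (about 760) showed 50% or more at least once.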

Each number is a percent effect as filed.
The controls that fix the scale are not given in the record; negative values are as filed.
Compounds were drawn at random from those tested, without regard to their results.
Two or more numbers in one place are separate tests of the same structure; such repeats can differ widely.
A dash means the value is not listed here; it may have been measured.

compound	A	B
Cc1ccc(C2C3=C(COC3=O)Nc3[nH]nc(C)c32)cc1C (stereo not given)	-7.059%	1.852%
CN1CCN(CCNC(=O)c2sccc2C2CC2)CC1	-2.966%	22.99%
N#Cc1nc(COc2ccc3c(c2)OCO3)oc1N1CCCC1	29.31%	17.81%
COc1ccc(C[C@H]2CN(C(=O)C3CC3)CC[C@H]2OC)cc1	4.934%	-7.852%
COCCN1CCN(CC(=O)N(C)Cc2cccc(F)c2)CC1C (stereo not given)	-3.27%	-18.74%
C[C@@H]1CN(Cc2cccnc2)C[C@]1(C)O	2.319%	14.8%
[H][C@@]12CCN(C(=O)c3ccno3)[C@]1([H])CCC(=O)N2Cc1csc(C)n1	-18.76%	2.071%
CC(=O)NCC1CCN(c2cc(C(C)C)nc3ccnn23)CC1	2.099%	24.82%
CCCc1nc(CN(CC)Cc2ccc(S(C)(=O)=O)cc2)no1	-40.98%	-61.88%
CCOc1cccc(CNc2ccccc2Cl)c1O	-8.709%	12.49%
CCc1nc(C2CCCN2C(=O)c2cc(C3CC3)[nH]n2)no1 (stereo not given)	-3.045%	3.631%
Cc1ccnn1CC(=O)N(C)Cc1cnn(-c2ccccc2)c1	-6.161%	-2.471%
COCCN1CCC(CNC(=O)C2(C#N)CCCCC2)CC1	0.5001%	-3.309%
CCN(CC)CCNS(=O)(=O)c1cccc(CSC)c1	-6.954%	19.33%
Cc1noc(C2CCCCN2C(=O)NCc2ccco2)n1 (stereo not given)	-11.82%	-15.26%
CCOCC(=O)Nc1ccc(N2CCSCC2)cc1C	5.093%	2.431% and 4.19%
COc1ccncc1NC(=O)C1(c2ccc(F)cc2)CCC1	-19.16%	-6.789%
Cn1nc(CN2CCOCC2)c2c1CN(Cc1ccsc1)C2.O=C(O)C(F)(F)F.O=C(O)C(F)(F)F	10.08%	14.74%
O=C(O)C(F)(F)F.[H][C@@]12CN(C(=O)C3CC3)C[C@]1([H])C(=O)N(Cc1csc(C)n1)C2	-30.79%	-2.765%
CN(C)CCN1C(=O)CCCC12CCCN(C(=O)c1ccncc1)C2.O=C(O)C(F)(F)F.O=C(O)C(F)(F)F (stereo not given)	14.59%	31.09%
COCC(C)NCc1ccc2[nH]c(C)c(C)c2c1 (stereo not given)	3.726%	23.26%
CCn1nnnc1-c1cccc(NC(N)=O)c1	-0.335%	-3.223%
Cn1c(-c2ccccc2Cl)nc2cc(C(=O)NCCS(C)(=O)=O)cnc21	10.27%	11.57% and 4.492%
CCN(CC)c1ncc(CNC2CCc3ncnn3C2)s1 (stereo not given)	-1.876%	-1.209%
CN1CCCN(S(=O)(=O)c2cn(C)cn2)c2cc(Cl)ccc21	-4.122%	-13.55%
CCC(=O)N1CCN(C(=O)CCn2cccn2)CC1	-1.676%	7.324%
Cc1nc2ccccc2nc1CN1CCc2c(nc(C3CC3)n2C)C1	-15.58%	-9.535%
Cc1cnn(CC2CN(Cc3nnc(C4CC4)o3)CCO2)c1 (stereo not given)	-15.25%	18.78%
CC(CN1CCOCC1)OC(=O)c1cccc2cn[nH]c12 (stereo not given)	-4.509%	1.424% and 9.959%
CCc1ncncc1C(=O)N1CCCC(n2nc(C)nc2C)C1 (stereo not given)	5.132%	0.4755%
CC(C)Cn1nc2ccc(S(=O)(=O)N3CCC(C)CC3)cn2c1=O	4.179%	20.29%
O=C(O)C(F)(F)F.O=C(O)C(F)(F)F.O=C(O)C(F)(F)F.[H][C@@]12CCCO[C@]1([H])[C@H](N(C)Cc1ccco1)CN(Cc1cccnc1)C2	-22.34%	-23.68%
CCCOc1ccc(CNC(=O)N2CCC(C(N)=O)C2)cc1 (stereo not given)	-6.164%	-19.82%
CC(C)(C)c1cc(C[C@H]2CNCC[C@H]2CC(=O)Nc2ccccc2)no1	5.095%	20.88% and 2.571%
COc1ccc2cc(CN(C)CCc3cn[nH]c3)c(=O)[nH]c2c1	5.83% and -4.81%	3.134% and 8.424%
Cc1ccn(CCNc2ncnc3c2CCN(c2cnccn2)CC3)n1	-32.07%	-15.94%
CN(C)CCOCC1CN(C(=O)c2cccnc2)Cc2ccnn2C1 (stereo not given)	-6.506%	-0.8907% and 14.49%
COCCn1ccnc1C1CCN(C(=O)CSc2nnc(C)o2)CC1	1.261%	0.7497%
CCN(CC)c1ccc(NC(=O)N2CCc3sccc3C2)cn1	-4.723%	15.45%
O=c1[nH]nc2c(N3CCC(NC4CCOCC4)CC3)nccn12	-16.41%	-6.391%
CCN(C(C)=O)C1CCN(c2nccc(C3CCCC3)n2)C1 (stereo not given)	-20.65%	-2.435%
Cc1cncc(C2CCCN(Cc3cccn3C)C2)n1 (stereo not given)	-0.505%	19.54%
CC(C)N1c2sc(-c3ccsc3)nc2CC1C(=O)NC1CC1 (stereo not given)	-1.357%	3.536% and -44.1%
N#CC1(C(=O)N2CCN(Cc3cscn3)CC2)CCCCC1	8.812%	-23.54% and 4.449%
O=C(OCc1cccc(F)c1)c1cccc(C(=O)N2CCCC2)n1	0.286% and 17.71%	14.94%
CCC(C)[C@H](NC(=O)c1ccc(F)cc1-n1cnnn1)C(=O)OC (stereo not given in full)	3.749%	16.54%
[H][C@@]12CS(=O)(=O)C[C@]1([H])N(Cc1ccc(CCC)o1)CCN2c1ncccn1	9.922%	5.979%
O=C(O)C(F)(F)F.[H][C@@]12COC[C@]1([H])[C@H](OCc1csc(C)n1)CN2Cc1nccs1	28.6%	-29.41%
COC(=O)NCC(=O)N1CCC(c2nc3cc(F)ccc3[nH]2)CC1	14.9%	30.91%
Cc1nn(C)cc1S(=O)(=O)N(CCc1ccccc1)Cc1ccn(C)n1	8.246%	36.48%
O=C(O)C(F)(F)F.[H][C@@]12CN(Cc3cnn(C)c3)CCC[C@]1(C(=O)O)CN(c1ncccn1)C2	-9.424%	-20.32% and -4.274%
O=C(O)C(F)(F)F.O=C(O)C(F)(F)F.[H][C@]12CCC[C@@]1(COc1ccccn1)CN(C(=O)c1cncc(C)c1)C2	6.201%	15.79%
CCN(CC)c1nc(O)cc(C(C)n2ncc3ccccc3c2=O)n1 (stereo not given)	2.217% and 0.713%	1.478%
CC(C)OCCC1CCCCN1S(C)(=O)=O (stereo not given)	0.2044%	2.255% and -11.16%
COc1ccc(S(=O)(=O)NCC(O)c2sccc2C)cc1Cl (stereo not given)	-1.885%	18.6% and 1.937%
Cc1ccccc1C1(C(=O)NCCN2CCCC2)CCOCC1	8.923%	15.92%
O=C1CN(CCS(=O)(=O)c2ccc(Cl)cc2)CCN1	-24.13%	-18.02% and 1.042%
Cn1nc(C(=O)N2CC(Oc3nc4c(Cl)cccc4s3)C2)ccc1=O	5.156%	5.849% and -0.04649%
CC(Cn1ccnc1)NC(=O)NCCc1ccc2c(c1)OCCO2 (stereo not given)	-36.17%	-34.18%
CC(C)C(C(=O)NCc1ccccc1-n1cccn1)N(C)C (stereo not given)	-13.62%	-8.213%
CC(C1CC1)n1nccc1NC(=O)CN(C)C(=O)OC(C)(C)C (stereo not given)	-	7.049%
CC(=O)N(C)Cc1ccc(OCc2cccs2)cc1	27.4%	27% and 25.71%
CN(Cc1cc2ccccc2o1)S(C)(=O)=O	4.413%	3.376%
Cc1nc(CN2CCC(N(C)Cc3noc(C(C)C)n3)C2)cs1 (stereo not given)	-70.63%	-89.78% and -12.35%
CCN(c1ccsc1C(=O)N1CCC(C)CC1)S(=O)(=O)c1ccccc1	1.518%	-11.39%
CC(c1cccnc1)N(C)Cc1cc2cc3c(cc2[nH]c1=O)OCO3 (stereo not given)	-7.382%	0.3%
CCn1c(C)nc2cc(NC(=O)CC3CCCCO3)ccc21 (stereo not given)	-19.02% and -3.564%	-11.75%
Cc1nc(C)n(C2CCCN(C(=O)c3ccc(N(C)C)nn3)C2)n1 (stereo not given)	0.8739%	-2.268%
O=C(Cc1cccc(F)c1)N1CCc2ncnc(NC3CC3)c2CC1.O=C(O)C(F)(F)F	13.8%	5.065%
Cc1nc(N)nc(C)c1Cc1nc(C2CC2)n[nH]1	7.942%	-21.64% and -2.19%
O=C(O)C(F)(F)F.O=C(O)C(F)(F)F.[H][C@@]12COC[C@]1(CN(C)C)CN(Cc1ccc3c(c1)OCO3)C2	-4.858%	16.09%
CC(C)(C)CN1CC(COc2ccccc2)Oc2ccncc2S1(=O)=O (stereo not given)	-5.584%	-15.7%
CCC(C)NC(=O)c1cc(S(=O)(=O)N2CCCC2)c(C)s1 (stereo not given)	6.814% and 4.046%	-33.57%
Cc1cc(NC2CCN(c3ccc(F)cc3)CC2)n2nc(C)cc2n1	-0.92%	19.85%
Cc1nn(C)c(C)c1C1CCCN1C(=O)CCc1cscn1 (stereo not given)	0.9095%	21.67%
CCn1nc(C)c(CCNC(=O)C2CCCN(C(N)=O)C2)c1C (stereo not given)	-36.24%	4.598%
CCC(O)CN1CCN(C(=O)c2ccn(-c3ccccc3)n2)CC1 (stereo not given)	-10.13%	22.41%
COC(=O)c1ccc(N2CCN(C(=O)c3ccncc3)C(C)C2)cc1 (stereo not given)	4.074%	20.88%

The last 6 entries again:

* CCC(C)NC(=O)c1cc(S(=O)(=O)N2CCCC2)c(C)s1 (stereo not given) : A: 6.814% and 4.046%; B: -33.57%
* Cc1cc(NC2CCN(c3ccc(F)cc3)CC2)n2nc(C)cc2n1 : A: -0.92%; B: 19.85%
* Cc1nn(C)c(C)c1C1CCCN1C(=O)CCc1cscn1 (stereo not given) : A: 0.9095%; B: 21.67%
* CCn1nc(C)c(CCNC(=O)C2CCCN(C(N)=O)C2)c1C (stereo not given) : A: -36.24%; B: 4.598%
* CCC(O)CN1CCN(C(=O)c2ccn(-c3ccccc3)n2)CC1 (stereo not given) : A: -10.13%; B: 22.41%
* COC(=O)c1ccc(N2CCN(C(=O)c3ccncc3)C(C)C2)cc1 (stereo not given) : A: 4.074%; B: 20.88%